Measured values published in PubChem BioAssay AID330 (DTP/NCI, 2004).
The list does not hold the whole screen: it gathers tests that were run many times, whatever their T/C, doses with no T/C, and many T/C values between a quarter and a half above the control. Other doses and runs of a compound stand elsewhere. T/C: endpoint of the treated group in % of that of the vehicle group. Some doses have a count of surviving animals in place of a T/C: the source files T/C as zero there, which appears to mark a toxic dose or a test without result, not a measured value. Some survivor counts are full or nearly so, which does not show that the dose was tolerated: survival well below the control is almost never listed, so the zero probably covers shortened survival too. Counts of survivors are from the toxicity check (mostly the fifth day) where no day follows; animals may have died later. Schedule codes are those of the source, taken here to give the interval after Q, in days (D) or hours (H), and the number of doses after X. Some structures stand for samples that the source files as different forms (salt, stereo form or complex); doses refer to the form tested. Some entries hold several experiments; the values are given in rising order. Additions like (4×) stand for listed records that agree. For survival time, this PubChem deposit counts one and a half times the control or more as active, and values a quarter to a half above the control carry no call in these data; other NCI protocols may use other cut-offs. Some T/C values carry the count of animals alive at the toxicity check (mostly the fifth day); where none is given, no animal had died by that day.

Test system: P388 leukemia ip, CD2F1 mice, survival T/C
Experiment: NCI In Vivo Anticancer Drug Screen. Data for tumor model P388 Leukemia (intraperitoneal) in CD2F1 (CDF1) mice
Settings: T/C endpoint: median survival time, higher T/C = longer survival

In the case of `COc1cc(NS(C)(=O)=O)ccc1Nc1c2ccccc2nc2ccccc12`, the T/C (dose: 12.0 mg/kg/injection, schedule: Q04DX003 (ip), vehicle: saline with Tween-80, evaluated on day 60) was 157, 216, 250 % of control, the T/C (dose: 12.0 mg/kg/injection, schedule: Q04DX003 (ip), vehicle: water) was 125 % of control and the T/C (dose: 13.0 mg/kg/injection, schedule: Q04DX003 (ip), vehicle: saline with Tween-80, evaluated on day 44) was 173 % of control. For the same compound, the T/C (dose: 13.0 mg/kg/injection, schedule: Q04DX003 (ip), vehicle: saline with Tween-80, evaluated on day 45) was 146, 152, 161, 166, 180, 205 % of control, the T/C (dose: 13.0 mg/kg/injection, schedule: Q04DX003 (ip), vehicle: saline with Tween-80, evaluated on day 47) was 167, 188, 189, 196 % of control and the T/C (dose: 13.0 mg/kg/injection, schedule: Q04DX003 (ip), vehicle: saline with Tween-80, evaluated on day 48) was 157 % of control. The T/C (dose: 13.0 mg/kg/injection, schedule: Q04DX003 (ip), vehicle: saline with Tween-80, evaluated on day 60) was 200, 216, 220 % of control, the T/C (dose: 15.0 mg/kg/injection, schedule: Q04DX003 (ip), vehicle: saline with Tween-80, evaluated on day 5) was 188 and 262 % of control and the T/C (dose: 15.0 mg/kg/injection, schedule: Q04DX003 (ip), vehicle: saline with Tween-80, evaluated on day 7) was 157 % of control. For the same compound, the T/C (dose: 15.0 mg/kg/injection, schedule: Q04DX003 (ip), vehicle: saline with Tween-80, evaluated on day 60) was 154, 223, 250 % of control, the survivor count (dose: 16.0 mg/kg/injection, schedule: Q01DX005 (ip), vehicle: other) was 5 of 5 and the survivor count (dose: 16.0 mg/kg/injection, schedule: Q01DX005 (oral), vehicle: other) was 5 of 6. The T/C (dose: 16.0 mg/kg/injection, schedule: Q04DX003 (oral), vehicle: other) was 130 and 132 % of control, the survivor count (dose: 20.0 mg/kg/injection, schedule: Q04DX002 (ip), vehicle: clinical formulation) was 4 of 6 and the T/C (dose: 20.0 mg/kg/injection, schedule: Q04DX002 (ip), vehicle: other, evaluated on day 30) was 90, 91 [5 of 6 alive], 95 [5 of 6 alive], 142, 175, 191 [4 of 6 alive], 200, 203 [5 of 6 alive], 205, 205 [5 of 6 alive], 211, 220, 229, 232 (2×), 234, 240 (2×), 245 [4 of 6 alive], 245 [5 of 6 alive], 248, 257, 259, 265 % of control. The T/C (dose: 20.0 mg/kg/injection, schedule: Q04DX002 (ip), vehicle: other, evaluated on day 35) was 149 and 218 % of control, the T/C (dose: 20.0 mg/kg/injection, schedule: Q04DX002 (ip), vehicle: other, evaluated on day 45) was 186 [7 of 8 alive], 200 [7 of 8 alive], 220 % of control and the T/C (dose: 20.0 mg/kg/injection, schedule: Q04DX002 (ip), vehicle: other, evaluated on day 50) was 238 % of control. For the same compound, the survivor count (dose: 20.0 mg/kg/injection, schedule: Q04DX002 (ip), vehicle: other) was 5 of 10, 5 of 8, 4 of 6, 4 of 5, 5 of 5, the T/C (dose: 20.0 mg/kg/injection, schedule: Q04DX002 (ip), vehicle: saline with Tween-80) was 175, 190, 202, 203, 220 % of control and the survivor count (dose: 20.0 mg/kg/injection, schedule: Q04DX003 (ip), vehicle: clinical formulation) was 3 of 8. The T/C (dose: 20.0 mg/kg/injection, schedule: Q04DX003 (ip), vehicle: other, evaluated on day 5) was 258 % of control [6 of 7 alive], the T/C (dose: 20.0 mg/kg/injection, schedule: Q04DX003 (ip), vehicle: other, evaluated on day 30) was 208 % of control and the T/C (dose: 20.0 mg/kg/injection, schedule: Q04DX003 (ip), vehicle: other, evaluated on day 40) was 301 % of control. For the same compound, the T/C (dose: 20.0 mg/kg/injection, schedule: Q04DX003 (ip), vehicle: other, evaluated on day 45) was 102, 112, 195, 201 [7 of 8 alive], 206, 241, 243, 271 % of control, the T/C (dose: 20.0 mg/kg/injection, schedule: Q04DX003 (ip), vehicle: other, evaluated on day 60) was 268 % of control and the survivor count (dose: 20.0 mg/kg/injection, schedule: Q04DX003 (ip), vehicle: other) was 5 of 8, 6 of 8, 6 of 6. For the same compound, the T/C (dose: 20.0 mg/kg/injection, schedule: Q04DX003 (ip), vehicle: saline with Tween-80, evaluated on day 7) was 172 % of control, the T/C (dose: 20.0 mg/kg/injection, schedule: Q04DX003 (ip), vehicle: saline with Tween-80, evaluated on day 44) was 207 % of control and the T/C (dose: 20.0 mg/kg/injection, schedule: Q04DX003 (ip), vehicle: saline with Tween-80, evaluated on day 45) was 152, 160, 166, 191, 198, 203 % of control (2×). For the same compound, the T/C (dose: 20.0 mg/kg/injection, schedule: Q04DX003 (ip), vehicle: saline with Tween-80, evaluated on day 47) was 168, 182, 204, 218 % of control, the T/C (dose: 20.0 mg/kg/injection, schedule: Q04DX003 (ip), vehicle: saline with Tween-80, evaluated on day 48) was 155 % of control and the T/C (dose: 20.0 mg/kg/injection, schedule: Q04DX003 (ip), vehicle: saline with Tween-80, evaluated on day 60) was 164, 202, 221 % of control. For the same compound, the survivor count (dose: 20.0 mg/kg/injection, schedule: Q04DX003 (ip), vehicle: saline) was 8 of 8, the survivor count (dose: 20.0 mg/kg/injection, schedule: Q04DX003 (ip), vehicle: water) was 5 of 8, 6 of 8, 7 of 8 and the T/C (dose: 22.0 mg/kg/injection, schedule: Q04DX003 (oral), vehicle: other) was 126 % of control. The survivor count (dose: 24.0 mg/kg/injection, schedule: Q04DX003 (ip), vehicle: clinical formulation) was 3 of 8, the survivor count (dose: 25.0 mg/kg/injection, schedule: Q01DX001 (ip), vehicle: Klucel (hydroxypropylcellulose) (HPC)) was 3 of 6 and the T/C (dose: 25.0 mg/kg/injection, schedule: Q04DX002 (oral), vehicle: other) was 132 % of control. The T/C (dose: 30.0 mg/kg/injection, schedule: Q04DX003 (ip), vehicle: saline with Tween-80, evaluated on day 44) was 259 % of control, the T/C (dose: 30.0 mg/kg/injection, schedule: Q04DX003 (ip), vehicle: saline with Tween-80, evaluated on day 45) was 149, 203, 216 % of control and the T/C (dose: 30.0 mg/kg/injection, schedule: Q04DX003 (ip), vehicle: saline with Tween-80, evaluated on day 47) was 196, 213, 238, 240 % of control. The T/C (dose: 30.0 mg/kg/injection, schedule: Q04DX003 (ip), vehicle: saline with Tween-80, evaluated on day 48) was 155 % of control, the T/C (dose: 33.0 mg/kg/injection, schedule: Q04DX003 (oral), vehicle: other) was 126 % of control [4 of 5 alive] and the T/C (dose: 37.5 mg/kg/injection, schedule: Q04DX002 (oral), vehicle: dextrose) was 127 and 139 % of control. The T/C (dose: 40.0 mg/kg/injection, schedule: Q01DX001 (ip), vehicle: saline with Tween-80) was 141 % of control, the survivor count (dose: 40.0 mg/kg/injection, schedule: Q04DX002 (ip), vehicle: clinical formulation) was 0 of 6 and the survivor count (dose: 40.0 mg/kg/injection, schedule: Q04DX002 (ip), vehicle: other) was 0 of 6, 1 of 6 (2×), 1 of 5, 2 of 6, 2 of 5, 3 of 6, 3 of 5, 4 of 5, 5 of 6 (2×), 6 of 6. For the same compound, the T/C (dose: 40.0 mg/kg/injection, schedule: Q04DX002 (ip), vehicle: saline with Tween-80) was 194, 201, 209, 238, 245 % of control, the survivor count (dose: 40.0 mg/kg/injection, schedule: Q04DX003 (ip), vehicle: other) was 3 of 6 and the survivor count (dose: 50.0 mg/kg/injection, schedule: Q01DX001 (ip), vehicle: Klucel (hydroxypropylcellulose) (HPC)) was 4 of 6. The survivor count (dose: 100.0 mg/kg/injection, schedule: Q01DX001 (ip), vehicle: Klucel (hydroxypropylcellulose) (HPC)) was 1 of 6, the survivor count (dose: 100.0 mg/kg/injection, schedule: Q04DX002 (oral), vehicle: other) was 4 of 6 and 5 of 6 and the survivor count (dose: 150.0 mg/kg/injection, schedule: Q04DX002 (oral), vehicle: dextrose) was 3 of 6 and 5 of 6. For the same compound, the survivor count (dose: 200.0 mg/kg/injection, schedule: Q04DX002 (oral), vehicle: other) was 5 of 6 and 6 of 6 and the survivor count (dose: 300.0 mg/kg/injection, schedule: Q04DX002 (oral), vehicle: dextrose) was 0 of 6.
